Assay results from the supplement of paper PMC6411743.
± gives the standard deviation of the averaged measurements. The list shows a part of the results, in another mix than the full data. Small differences around the control level are noise.

By UniProt entry, the sequences of proteins in these tests, tags left out. Where a name states a change or a piece, a line headed by the entry shows the natural chain unless it says otherwise.
UniProt P04183: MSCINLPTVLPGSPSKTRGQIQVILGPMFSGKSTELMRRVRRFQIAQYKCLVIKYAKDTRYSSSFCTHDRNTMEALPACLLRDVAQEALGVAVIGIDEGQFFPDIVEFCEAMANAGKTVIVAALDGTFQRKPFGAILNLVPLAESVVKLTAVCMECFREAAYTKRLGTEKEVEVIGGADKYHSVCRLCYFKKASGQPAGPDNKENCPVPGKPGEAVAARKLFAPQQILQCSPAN
UniProt P14854, whole entry: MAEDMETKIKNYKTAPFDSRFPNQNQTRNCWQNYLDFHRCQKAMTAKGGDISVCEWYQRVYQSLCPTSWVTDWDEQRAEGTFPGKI
UniProt P08648, whole entry: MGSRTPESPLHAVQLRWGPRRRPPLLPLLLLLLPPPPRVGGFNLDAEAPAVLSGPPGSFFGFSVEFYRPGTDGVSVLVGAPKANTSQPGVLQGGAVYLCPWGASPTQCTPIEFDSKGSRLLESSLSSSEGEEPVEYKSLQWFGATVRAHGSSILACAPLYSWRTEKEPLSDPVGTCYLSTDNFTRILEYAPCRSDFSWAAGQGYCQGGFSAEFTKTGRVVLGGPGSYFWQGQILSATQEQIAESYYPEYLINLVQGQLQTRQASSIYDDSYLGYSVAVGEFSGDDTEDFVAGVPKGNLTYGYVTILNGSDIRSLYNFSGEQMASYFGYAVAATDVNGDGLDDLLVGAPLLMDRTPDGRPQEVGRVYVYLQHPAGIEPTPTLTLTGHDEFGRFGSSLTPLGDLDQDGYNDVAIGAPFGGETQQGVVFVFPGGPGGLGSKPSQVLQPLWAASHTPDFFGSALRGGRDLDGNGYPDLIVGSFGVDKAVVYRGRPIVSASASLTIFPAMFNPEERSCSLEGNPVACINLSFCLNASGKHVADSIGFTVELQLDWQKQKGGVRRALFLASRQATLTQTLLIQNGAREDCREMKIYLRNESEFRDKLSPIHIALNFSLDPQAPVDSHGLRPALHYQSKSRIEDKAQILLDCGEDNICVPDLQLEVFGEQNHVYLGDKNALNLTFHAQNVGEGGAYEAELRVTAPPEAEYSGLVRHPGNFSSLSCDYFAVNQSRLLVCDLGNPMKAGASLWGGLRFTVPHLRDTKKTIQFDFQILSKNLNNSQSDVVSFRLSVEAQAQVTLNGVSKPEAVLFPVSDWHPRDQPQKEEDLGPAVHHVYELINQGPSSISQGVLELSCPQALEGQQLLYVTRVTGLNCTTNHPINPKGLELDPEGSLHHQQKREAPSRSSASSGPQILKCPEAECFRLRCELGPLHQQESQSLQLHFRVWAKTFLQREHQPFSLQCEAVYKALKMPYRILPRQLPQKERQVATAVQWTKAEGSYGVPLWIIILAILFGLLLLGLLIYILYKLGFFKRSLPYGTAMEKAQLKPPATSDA
UniProt P00491: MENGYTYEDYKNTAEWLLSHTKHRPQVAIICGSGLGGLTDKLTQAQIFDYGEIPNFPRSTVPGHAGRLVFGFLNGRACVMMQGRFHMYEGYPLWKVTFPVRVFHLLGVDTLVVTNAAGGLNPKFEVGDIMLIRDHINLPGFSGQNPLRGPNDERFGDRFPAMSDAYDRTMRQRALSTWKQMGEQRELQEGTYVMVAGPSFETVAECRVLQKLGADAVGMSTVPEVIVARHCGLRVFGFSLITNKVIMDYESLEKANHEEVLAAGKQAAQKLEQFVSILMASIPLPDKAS
UniProt P16591: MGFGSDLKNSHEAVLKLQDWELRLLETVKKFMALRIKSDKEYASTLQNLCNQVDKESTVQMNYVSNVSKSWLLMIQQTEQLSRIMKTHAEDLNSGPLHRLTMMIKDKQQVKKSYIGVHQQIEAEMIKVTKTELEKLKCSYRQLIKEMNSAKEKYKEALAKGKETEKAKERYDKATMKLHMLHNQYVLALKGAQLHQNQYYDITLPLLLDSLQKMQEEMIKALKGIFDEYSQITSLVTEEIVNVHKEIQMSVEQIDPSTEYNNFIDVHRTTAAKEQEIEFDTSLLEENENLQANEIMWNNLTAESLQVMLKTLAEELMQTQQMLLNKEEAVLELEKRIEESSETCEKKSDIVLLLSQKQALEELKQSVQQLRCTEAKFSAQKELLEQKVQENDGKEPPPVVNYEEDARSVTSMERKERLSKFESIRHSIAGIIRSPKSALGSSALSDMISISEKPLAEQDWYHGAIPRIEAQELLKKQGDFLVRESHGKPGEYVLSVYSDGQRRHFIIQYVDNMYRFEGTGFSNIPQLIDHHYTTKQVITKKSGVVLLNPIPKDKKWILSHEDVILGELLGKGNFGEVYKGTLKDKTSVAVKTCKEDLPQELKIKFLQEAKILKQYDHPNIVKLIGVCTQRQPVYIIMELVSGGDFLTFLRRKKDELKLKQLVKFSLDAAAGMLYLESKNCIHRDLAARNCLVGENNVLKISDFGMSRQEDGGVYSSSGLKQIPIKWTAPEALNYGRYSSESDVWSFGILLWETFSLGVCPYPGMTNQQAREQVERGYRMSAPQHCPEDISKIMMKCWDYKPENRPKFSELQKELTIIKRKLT
UniProt P09661: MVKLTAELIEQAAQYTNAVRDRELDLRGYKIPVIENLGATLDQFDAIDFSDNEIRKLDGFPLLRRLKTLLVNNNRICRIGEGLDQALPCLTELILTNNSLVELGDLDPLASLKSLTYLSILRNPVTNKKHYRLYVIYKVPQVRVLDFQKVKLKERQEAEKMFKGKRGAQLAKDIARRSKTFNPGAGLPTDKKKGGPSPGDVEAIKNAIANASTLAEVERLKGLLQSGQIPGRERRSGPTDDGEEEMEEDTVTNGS
UniProt P11177, whole entry: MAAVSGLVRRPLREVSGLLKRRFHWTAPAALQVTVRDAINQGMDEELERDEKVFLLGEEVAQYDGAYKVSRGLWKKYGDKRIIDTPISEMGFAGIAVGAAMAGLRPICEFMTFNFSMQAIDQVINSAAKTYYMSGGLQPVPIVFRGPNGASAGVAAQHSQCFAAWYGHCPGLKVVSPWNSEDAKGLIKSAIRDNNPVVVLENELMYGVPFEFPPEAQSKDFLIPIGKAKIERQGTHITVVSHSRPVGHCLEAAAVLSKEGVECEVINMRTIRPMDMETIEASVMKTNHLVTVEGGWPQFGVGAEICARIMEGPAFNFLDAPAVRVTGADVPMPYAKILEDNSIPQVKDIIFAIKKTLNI
UniProt P15056, whole entry: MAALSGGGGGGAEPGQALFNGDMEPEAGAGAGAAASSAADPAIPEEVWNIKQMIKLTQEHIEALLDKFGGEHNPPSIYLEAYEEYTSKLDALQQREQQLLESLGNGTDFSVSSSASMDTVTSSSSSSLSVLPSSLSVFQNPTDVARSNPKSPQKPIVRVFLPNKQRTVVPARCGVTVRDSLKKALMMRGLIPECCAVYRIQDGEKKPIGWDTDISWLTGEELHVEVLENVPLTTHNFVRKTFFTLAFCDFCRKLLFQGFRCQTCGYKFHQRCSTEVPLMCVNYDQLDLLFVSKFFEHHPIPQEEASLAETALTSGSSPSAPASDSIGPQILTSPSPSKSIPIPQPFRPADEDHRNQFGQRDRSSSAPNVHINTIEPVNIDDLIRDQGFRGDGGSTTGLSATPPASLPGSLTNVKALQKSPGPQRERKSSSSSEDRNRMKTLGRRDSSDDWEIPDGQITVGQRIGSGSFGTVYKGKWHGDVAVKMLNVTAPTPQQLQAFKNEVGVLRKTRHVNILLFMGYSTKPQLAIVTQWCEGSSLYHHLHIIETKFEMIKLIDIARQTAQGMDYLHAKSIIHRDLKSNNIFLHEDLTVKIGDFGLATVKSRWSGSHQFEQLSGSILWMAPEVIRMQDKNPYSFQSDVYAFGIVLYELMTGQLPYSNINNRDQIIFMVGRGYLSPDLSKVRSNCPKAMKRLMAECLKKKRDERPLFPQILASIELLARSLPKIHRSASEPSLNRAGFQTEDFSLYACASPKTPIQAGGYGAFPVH
UniProt P08243: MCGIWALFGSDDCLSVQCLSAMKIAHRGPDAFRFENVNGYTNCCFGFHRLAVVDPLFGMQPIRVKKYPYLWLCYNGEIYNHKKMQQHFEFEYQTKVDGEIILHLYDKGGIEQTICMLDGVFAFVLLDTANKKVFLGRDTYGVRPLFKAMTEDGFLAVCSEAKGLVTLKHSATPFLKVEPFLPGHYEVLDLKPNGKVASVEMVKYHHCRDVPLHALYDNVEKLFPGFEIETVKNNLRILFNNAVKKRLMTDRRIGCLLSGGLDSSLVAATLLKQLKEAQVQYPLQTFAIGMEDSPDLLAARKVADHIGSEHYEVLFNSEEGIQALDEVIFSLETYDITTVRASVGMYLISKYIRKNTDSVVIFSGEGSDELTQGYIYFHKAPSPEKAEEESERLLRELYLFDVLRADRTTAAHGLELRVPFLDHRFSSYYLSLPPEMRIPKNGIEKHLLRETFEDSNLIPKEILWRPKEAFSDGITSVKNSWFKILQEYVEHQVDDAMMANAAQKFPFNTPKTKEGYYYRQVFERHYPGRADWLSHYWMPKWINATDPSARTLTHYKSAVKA
UniProt P08621, whole entry: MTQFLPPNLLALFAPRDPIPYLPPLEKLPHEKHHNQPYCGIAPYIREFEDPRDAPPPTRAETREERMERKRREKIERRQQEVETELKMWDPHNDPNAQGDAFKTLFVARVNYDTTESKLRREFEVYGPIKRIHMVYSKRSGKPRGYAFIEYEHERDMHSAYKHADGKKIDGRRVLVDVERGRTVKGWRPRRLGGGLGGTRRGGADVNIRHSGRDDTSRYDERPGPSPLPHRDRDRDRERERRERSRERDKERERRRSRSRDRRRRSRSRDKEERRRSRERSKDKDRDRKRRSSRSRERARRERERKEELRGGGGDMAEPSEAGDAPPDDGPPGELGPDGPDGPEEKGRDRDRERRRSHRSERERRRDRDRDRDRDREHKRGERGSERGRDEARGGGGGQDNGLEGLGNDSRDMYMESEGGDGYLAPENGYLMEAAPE
UniProt P04899, whole entry: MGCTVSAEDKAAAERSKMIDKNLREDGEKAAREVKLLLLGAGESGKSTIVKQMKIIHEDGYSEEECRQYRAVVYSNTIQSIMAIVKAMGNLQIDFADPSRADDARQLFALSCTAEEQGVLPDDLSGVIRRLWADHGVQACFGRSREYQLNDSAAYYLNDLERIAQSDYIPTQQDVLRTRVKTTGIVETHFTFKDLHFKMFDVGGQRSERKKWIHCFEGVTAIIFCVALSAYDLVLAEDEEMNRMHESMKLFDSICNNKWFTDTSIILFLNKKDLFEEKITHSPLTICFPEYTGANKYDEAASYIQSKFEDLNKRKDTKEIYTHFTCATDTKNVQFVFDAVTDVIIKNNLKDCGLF
UniProt P06213, whole entry: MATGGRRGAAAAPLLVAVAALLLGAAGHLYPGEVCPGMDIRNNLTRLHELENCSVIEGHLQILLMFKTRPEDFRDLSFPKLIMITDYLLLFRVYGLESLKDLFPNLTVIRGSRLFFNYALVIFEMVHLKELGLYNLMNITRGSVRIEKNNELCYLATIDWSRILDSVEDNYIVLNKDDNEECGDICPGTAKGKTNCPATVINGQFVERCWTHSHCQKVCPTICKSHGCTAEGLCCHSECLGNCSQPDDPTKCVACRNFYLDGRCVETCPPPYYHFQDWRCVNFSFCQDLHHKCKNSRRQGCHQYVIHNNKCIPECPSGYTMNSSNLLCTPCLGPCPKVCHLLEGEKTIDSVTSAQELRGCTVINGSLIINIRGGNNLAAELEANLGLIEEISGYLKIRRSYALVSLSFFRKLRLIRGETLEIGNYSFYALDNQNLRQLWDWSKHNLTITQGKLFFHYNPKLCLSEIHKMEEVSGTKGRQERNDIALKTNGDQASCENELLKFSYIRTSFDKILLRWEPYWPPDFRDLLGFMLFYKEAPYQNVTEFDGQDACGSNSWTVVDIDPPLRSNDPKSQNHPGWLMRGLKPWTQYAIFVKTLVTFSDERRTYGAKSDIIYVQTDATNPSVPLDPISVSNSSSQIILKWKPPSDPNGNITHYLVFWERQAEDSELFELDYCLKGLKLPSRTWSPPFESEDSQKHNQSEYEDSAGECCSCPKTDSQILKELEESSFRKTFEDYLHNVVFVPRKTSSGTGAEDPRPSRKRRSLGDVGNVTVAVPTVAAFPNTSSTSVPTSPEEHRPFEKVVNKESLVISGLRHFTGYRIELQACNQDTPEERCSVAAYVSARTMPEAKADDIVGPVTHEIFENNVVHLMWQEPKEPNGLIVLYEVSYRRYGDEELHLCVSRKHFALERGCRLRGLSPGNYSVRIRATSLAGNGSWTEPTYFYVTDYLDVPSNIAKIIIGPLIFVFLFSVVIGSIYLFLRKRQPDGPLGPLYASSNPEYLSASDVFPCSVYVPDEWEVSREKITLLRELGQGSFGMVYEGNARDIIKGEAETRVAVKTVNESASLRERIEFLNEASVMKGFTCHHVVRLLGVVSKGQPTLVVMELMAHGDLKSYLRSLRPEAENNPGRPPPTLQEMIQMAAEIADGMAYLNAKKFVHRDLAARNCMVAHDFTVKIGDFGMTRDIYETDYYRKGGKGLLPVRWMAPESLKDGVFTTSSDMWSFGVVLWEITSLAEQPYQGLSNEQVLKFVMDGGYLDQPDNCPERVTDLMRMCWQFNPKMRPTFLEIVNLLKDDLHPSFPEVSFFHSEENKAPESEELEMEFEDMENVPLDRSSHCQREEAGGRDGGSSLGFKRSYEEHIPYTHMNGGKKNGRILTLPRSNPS

Compound: Nc1ncnc2c1ncn2[C@@H]1O[C@H](COP(=O)(O)OP(=O)(O)NP(=O)(O)O)[C@@H](O)[C@H]1O [adenylyl imidodiphosphate]
Assay: NP40-soluble protein abundance relative to vehicle (solubility fold change) (ratio); higher = more soluble protein in presence of AMP-PNP
Outline: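 Each value is a fold change relative to the detergent-processed vehicle, calculated per replicate from vsn-normalised intensities. Jurkat crude lysate received eight concentrations (0.1 to 10 mM) for 10 min at room temperature and 3 min at 37 °C, then was solubilised in 0.8% NP40 with benzonase (60 min, 4 °C). The ultracentrifuged supernatant was TMT-labelled and run by LC-MS/MS in three independent experiments.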

Target	NP40-soluble protein abundance (concentration: 0.1mM)	NP40-soluble protein abundance (concentration: 0.5mM)
UniProt O95793 and related entries	1.01 ± 0.017	0.9955 ± 0.0074
UniProt P07954-2	1.02 ± 0.013	1.01 ± 0.015
UniProt P04183 and related entries	0.991 ± 0.029	0.99 ± 0.02
UniProt P06126	0.998 ± 0.018	0.989 ± 0.021
UniProt P05161 and related entries	1.02 ± 0.036	0.999 ± 0.054
BAG3 (UniProt O95817)	0.966 ± 0.062	0.964 ± 0.046
HMGN1 (UniProt P05114)	1.07 ± 0.071	1.28 ± 0.27
COX6B1 (UniProt P14854)	0.924 ± 0.1	0.874 ± 0.025
ITGA5 (UniProt P08648)	0.997 ± 0.03	0.999 ± 0.024
UniProt O95786 and related entries	1.03 ± 0.04	0.97 ± 0.075
UniProt P10155	1.02 ± 0.047	0.965 ± 0.071
UniProt P01116-2	1.01 ± 0.028	0.97 ± 0.018
UniProt P00491	1.05 ± 0.025	0.996 ± 0.07
GTF2F2 (UniProt P13984)	0.984 ± 0.013	1.01 ± 0.025
NRAS (UniProt P01111)	1.01 ± 0.035	0.996 ± 0.07
UniProt P16591 and related entries	0.998 ± 0.02	0.948 ± 0.081
TXN (UniProt P10599)	0.987 ± 0.026	0.996 ± 0.038
SNRPA1 (UniProt P09661)	1.02 ± 0.045	1.06 ± 0.037
IGLL1 (UniProt P15814)	1.04 ± 0.046	1.02 ± 0.051
ENO2 (UniProt P09104)	0.989 ± 0.027	1.02 ± 0.031
UniProt P10619 and related entries	1.02 ± 0.047	1.01 ± 0.018
UniProt P11177 and related entries	1.07 ± 0.094	1.04 ± 0.093
UniProt P15056 and related entries	1.04 ± 0.033	1.01 ± 0.036
UniProt P08243 and related entries	1.04 ± 0.059	0.996 ± 0.1

Target	NP40-soluble protein abundance (concentration: 0.1mM)	NP40-soluble protein abundance (concentration: 0.5mM)
TOMM40 (UniProt O96008)	0.981 ± 0.03	1.03 ± 0.04
UniProt P15882 and related entries	0.987 ± 0.06	0.968 ± 0.061
APRT (UniProt P07741)	1.04 ± 0.021	1.02 ± 0.14
UniProt P08621 and related entries	1.028 ± 0.0096	1.01 ± 0.021
CSTB (UniProt P04080)	0.939 ± 0.043	0.974 ± 0.045
P00403 and related entries (UniProt Q8IVS2)	1.04 ± 0.049	0.975 ± 0.16
UniProt O95864 and related entries	1.001 ± 0.008	1.02 ± 0.056
UniProt P00519 and related entries	1.02 ± 0.015	1.03 ± 0.031
GNAI2 (UniProt P04899)	1.01 ± 0.066	1.01 ± 0.069
SRP19 (UniProt P09132)	0.965 ± 0.061	1.03 ± 0.14
UniProt P13807 and related entries	1.02 ± 0.034	0.968 ± 0.065
P0DN76 and related entries (UniProt Q01081+P0DN76)	1.1 ± 0.029	1.04 ± 0.063
MIF (UniProt P14174)	1.04 ± 0.047	1.02 ± 0.097
FBXO45 (UniProt P0C2W1)	1.01 ± 0.017	0.998 ± 0.055
UniProt P00441 and related entries	0.826 ± 0.16	1.08 ± 0.056
UniProt P13716 and related entries	1.02 ± 0.031	1 ± 0.025
UniProt P06213-2|P06213	0.993 ± 0.024	0.997 ± 0.038
UniProt P01737	1.01 ± 0.064	0.999 ± 0.06
UniProt P06737 and related entries	1.03 ± 0.024	1 ± 0.05
CTSB (UniProt P07858)	1.01 ± 0.025	1.02 ± 0.025
GAA (UniProt P10253)	0.995 ± 0.036	1.012 ± 0.0016
P0CG12 and related entries (UniProt P0CG13)	0.974 ± 0.036	0.979 ± 0.059
HSP90AB1 (UniProt P08238)	1.03 ± 0.037	1.04 ± 0.032

Exported as labelled records: part of the list above.
UniProt P06213-2|P06213
  NP40-soluble protein abundance (concentration: 0.1mM): 0.993 ± 0.024
  NP40-soluble protein abundance (concentration: 0.5mM): 0.997 ± 0.038
UniProt P01737
  NP40-soluble protein abundance (concentration: 0.1mM): 1.01 ± 0.064
  NP40-soluble protein abundance (concentration: 0.5mM): 0.999 ± 0.06
